# Data: paper PMC4441487
# Sequences of proteins named here, by UniProt entry; tags and fusion partners are left off. A change or cut given only in a name is not applied to a line headed by its entry. A line that says so, or that is headed by a name, gives the form on record, which may keep a tag or linker. Residues count along the entry.
# UniProt Q00987: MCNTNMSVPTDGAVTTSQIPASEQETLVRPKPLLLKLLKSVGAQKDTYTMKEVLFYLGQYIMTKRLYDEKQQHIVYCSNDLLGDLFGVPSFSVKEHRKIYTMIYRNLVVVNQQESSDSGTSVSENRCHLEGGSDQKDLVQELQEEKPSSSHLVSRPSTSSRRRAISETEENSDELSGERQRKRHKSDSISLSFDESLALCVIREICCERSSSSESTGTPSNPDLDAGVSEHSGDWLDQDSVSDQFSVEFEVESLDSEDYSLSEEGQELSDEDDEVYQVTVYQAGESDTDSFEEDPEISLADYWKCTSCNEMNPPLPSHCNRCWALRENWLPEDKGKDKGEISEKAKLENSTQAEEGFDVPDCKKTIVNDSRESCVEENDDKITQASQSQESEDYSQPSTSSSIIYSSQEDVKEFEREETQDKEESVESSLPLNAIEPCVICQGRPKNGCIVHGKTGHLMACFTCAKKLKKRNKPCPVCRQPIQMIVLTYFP
# GFP-MP1 (MDM2 amino acids 1–110 fused to green fluorescent protein): residues 1-110 of Q00987
# GST-MP2 (MDM2 mini-protein, amino acids 108–207): residues 108-207 of Q00987
# GST-MP3 (MDM2 mini-protein, amino acids 203–282): residues 203-282 of Q00987
# GST-MP4 (MDM2 mini-protein, amino acids 279–491): residues 279-491 of Q00987
# UniProt P43356: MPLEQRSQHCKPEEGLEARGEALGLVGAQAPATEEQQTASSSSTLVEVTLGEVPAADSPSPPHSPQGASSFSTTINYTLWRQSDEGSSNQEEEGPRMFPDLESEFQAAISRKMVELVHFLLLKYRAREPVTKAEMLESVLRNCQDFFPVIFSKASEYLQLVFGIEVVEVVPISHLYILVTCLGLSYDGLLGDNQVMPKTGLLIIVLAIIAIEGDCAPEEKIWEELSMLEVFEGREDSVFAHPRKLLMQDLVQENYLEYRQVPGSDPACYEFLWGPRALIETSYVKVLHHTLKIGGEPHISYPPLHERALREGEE
# No constants are given. Whether binding was seen depends on the method and setting. Binding seen in cells or lysates may run through a third protein. Some results given as binding are weak or reduced against the parent protein; the word gives no strength.
# Columns and labels:
# [1] = biological target: GST-MP1 (MDM2 mini-protein, amino acids 1–110) (human) (UniProt Q00987); experiment: pull-down; GST-MDM2 fusion proteins or GST alone on Glutathione Sepharose 4B beads, incubated with ^35S-labelled in vitro translated MAGE-A2; SDS-PAGE and fluorography; only the target purified
# [2] = biological target: GST-MP2 (MDM2 mini-protein, amino acids 108–207) (human) (UniProt Q00987); experiment: as above
# [3] = biological target: GST-MP3 (MDM2 mini-protein, amino acids 203–282) (human) (UniProt Q00987); experiment: as above
# [4] = biological target: GST-MP4 (MDM2 mini-protein, amino acids 279–491) (human) (UniProt Q00987); experiment: as above
# [5] = biological target: GST-full length human MDM2 (human) (UniProt Q00987); experiment: as above
# [6] = biological target: GST-MP1 (MDM2 mini-protein, amino acids 1–110) (human) (UniProt Q00987); experiment: pull-down; GST-MP1 on glutathione sepharose 4B beads, ^35S-radiolabelled MAGE-A2 or p53, in the presence of increasing concentrations of Nutlin-3a; fluorography and densitometry; only the target purified
# [7] = biological target: MDM2 peptide 151–165 (biotinylated) (human) (UniProt Q00987); experiment: pull-down; pepscan: 10 μg of biotinylated 15-mer MDM2 peptide on streptavidin-agarose beads, ^35S-labelled in vitro translated MAGE-A2 added for 2 hours at 4°C, washed in PBS/0.1% Tween-20; SDS-PAGE and fluorography; only the target purified
# [8] = biological target: MDM2 peptide 171–185 (biotinylated) (human) (UniProt Q00987); experiment: as above
# [9] = biological target: MDM2 peptide 191–205 (biotinylated) (human) (UniProt Q00987); experiment: as above
# [10] = biological target: MDM2 peptide 291–305 (biotinylated) (human) (UniProt Q00987); experiment: as above
# [11] = biological target: MDM2 peptide 311–325 (biotinylated) (human) (UniProt Q00987); experiment: as above
# [12] = biological target: MDM2 peptide 451–465 (biotinylated) (human) (UniProt Q00987); experiment: as above
# [13] = biological target: MDM2 peptide 461–475 (biotinylated) (human) (UniProt Q00987); experiment: as above
# [14] = biological target: MDM2 peptide 481–491 (biotinylated, C-terminal peptide) (human) (UniProt Q00987); experiment: as above
# [15] = biological target: MDM2 peptide 51–65 (biotinylated) (human) (UniProt Q00987); experiment: as above
# [16] = biological target: MDM2 peptide 91–105 (biotinylated) (human) (UniProt Q00987); experiment: as above
# [17] = biological target: GFP-MP1 (MDM2 amino acids 1–110 fused to green fluorescent protein) (human) (UniProt Q00987); experiment: co-IP; H1299 cells transfected with GFP-MP1 or GFP alone together with MAGE-A2 or p53
Substance,binding [1],binding [2],binding [3],binding [4],binding [5],binding [6],binding [7],binding [8],binding [9],binding [10],binding [11],binding [12],binding [13],binding [14],binding [15],binding [16],binding [17]
^35S-labelled in vitro-translated MAGE-A2 (from UniProt P43356 1-314),binds,binds weakly,binds weakly,binds,binds,binds,binds weakly,binds weakly,binds weakly,binds weakly,binds weakly,binds,binds,binds,binds,binds,
HA-tagged MAGE-A2 (expressed in H1299 cells) (from UniProt P43356 1-314),,,,,,,,,,,,,,,,,binds
